Laboratory results from patent US20190021380A1 (priority 2014, published 2019).
The match of structure and compound is tentative.

Sequences of proteins named here, by UniProt entry; tags and fusion partners are left off. A line that says so, or that is headed by a name, gives the form on record, which may keep a tag or linker. Residues count along the entry.
UniProt E3UMS2, 1-296: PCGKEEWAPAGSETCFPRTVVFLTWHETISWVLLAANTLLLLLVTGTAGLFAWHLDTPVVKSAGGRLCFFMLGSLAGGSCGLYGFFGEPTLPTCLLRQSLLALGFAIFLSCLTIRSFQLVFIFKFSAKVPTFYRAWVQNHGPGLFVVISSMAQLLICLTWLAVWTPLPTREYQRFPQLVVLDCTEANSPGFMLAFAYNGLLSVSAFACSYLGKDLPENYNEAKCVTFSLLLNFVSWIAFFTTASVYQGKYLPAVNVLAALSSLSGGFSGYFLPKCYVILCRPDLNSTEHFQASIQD
UniProt Q49KI5, with tags, fused parts or gaps E206Q/F654L/N523D partner limits assumed: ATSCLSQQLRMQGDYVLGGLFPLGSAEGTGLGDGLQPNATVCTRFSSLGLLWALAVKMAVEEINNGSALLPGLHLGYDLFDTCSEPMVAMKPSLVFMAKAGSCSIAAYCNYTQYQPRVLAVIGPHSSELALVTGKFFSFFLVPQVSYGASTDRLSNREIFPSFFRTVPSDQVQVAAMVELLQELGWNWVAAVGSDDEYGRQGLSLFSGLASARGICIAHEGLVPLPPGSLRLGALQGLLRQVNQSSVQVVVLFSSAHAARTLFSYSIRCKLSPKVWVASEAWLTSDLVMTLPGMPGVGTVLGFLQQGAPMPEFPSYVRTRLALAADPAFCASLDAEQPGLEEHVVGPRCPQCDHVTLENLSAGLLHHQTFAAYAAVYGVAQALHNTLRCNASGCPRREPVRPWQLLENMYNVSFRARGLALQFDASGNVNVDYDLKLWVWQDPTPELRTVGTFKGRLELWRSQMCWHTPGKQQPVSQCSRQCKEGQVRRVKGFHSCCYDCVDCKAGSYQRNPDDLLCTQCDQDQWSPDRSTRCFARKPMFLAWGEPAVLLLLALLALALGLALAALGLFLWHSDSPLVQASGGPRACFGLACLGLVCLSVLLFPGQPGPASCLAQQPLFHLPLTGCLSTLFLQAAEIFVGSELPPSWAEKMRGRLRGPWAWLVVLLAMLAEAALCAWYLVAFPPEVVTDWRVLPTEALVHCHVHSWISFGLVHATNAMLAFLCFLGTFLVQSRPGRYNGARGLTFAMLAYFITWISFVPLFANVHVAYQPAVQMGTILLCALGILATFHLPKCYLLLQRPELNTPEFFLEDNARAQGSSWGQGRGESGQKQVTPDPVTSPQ

Molecular target: cat T1R1/T1R3 receptor (Felis catus, UniProt E3UMS2)
Conditions: tested form: dilithium salt

## Nc1ncnc2c1ncn2[C@@H]1O[C@H](COP(O)(O)=S)[C@@H](O)[C@H]1O
  Thres: 0.015 mM
